PubChem BioAssay AID1224828 – NIAID – 2016

Purpose: 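Regulators linking TLR4 signalling to p65 nuclear translocation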 (primary screen)
Cells: mouse RAW264.7 G9 macrophage reporter cells (GFP-p65, Tnf promoter-mCherry)
Reagent: siRNA pool against mouse genes, 100 nM
Timing: 2 days siRNA transfection, then 40 min LPS before fixation
Conditions: LPS (Salmonella minnesota R595) at 10 ng/ml
Read-out: 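Microscopy ratio of nuclear to perinuclear-ring GFP-p65 signal, scaled to the plate median; gene score is the average of two replicate robust z-scores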
Direction: p65 translocation robust z-score: higher = more nuclear NF-kappaB p65 after LPS than the plate median; nuclear/cytoplasmic p65 ratio: higher = more nuclear NF-kappaB p65
Rule for the call: 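Called active when z exceeds 3.3 or falls under -1.56 (median of Tlr4 controls), giving activity score of at least 50; no calls for control wells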
Meaning of the calls: active = hit (p65 shift raised or lowered); inactive = no clear change
The whole screen tested about 17,000 reagents; below is a random part of them. 762 of all reagents (4.5%) count as active. 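Active calls include both raised and lowered p65 entry, mostly lowered; wells with fewer than 50 cells lack a z-score.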 The raw values are shown without normalisation. A reagent listed more than once was tested more than once; the source does not tell the runs apart.

| Target gene | p65 translocation robust z-score | nuclear/cytoplasmic p65 ratio, rep 1 | nuclear/cytoplasmic p65 ratio, rep 2 | low cell count flag | Call |
| --- | --- | --- | --- | --- | --- |
| Vmn1r51 | -0.28 | 1.38 | 1.17 | enough cells to score | inactive |
| Cenpm | – | 1.19 | 1.25 | fewer than 50 cells per well; well left out of scoring | inactive |
| Afg2a | 1.65 | 1.6 | 1.45 | enough cells to score | inactive |
| Lce1h | -0.5 | 1.34 | 1.19 | enough cells to score | inactive |
| Rpl3l | 0.8 | 1.53 | 1.06 | enough cells to score | inactive |
| Tob2 | 0.02 | 1.51 | 1.53 | enough cells to score | inactive |
| Veph1 | – | 1.37 | 1.28 | fewer than 50 cells per well; well left out of scoring | inactive |
| Ebpl | 0.49 | 1.53 | 1.35 | enough cells to score | inactive |
| Ptpn20 | – | 1.65 | 1.51 | fewer than 50 cells per well; well left out of scoring | inactive |
| Rab11a | 1.11 | 1.7 | 1.64 | enough cells to score | inactive |
| Rhd | 2.03 | 1.73 | 1.87 | enough cells to score | inactive |
| Eif4e | -0.29 | 1.37 | 1.38 | enough cells to score | inactive |
| Or52e5 | 0.08 | 1.4 | 1.28 | enough cells to score | inactive |
| Fgf22 | -0.77 | 1.42 | 1.41 | enough cells to score | inactive |
| Thra | -1.28 | 1.37 | 1.31 | enough cells to score | inactive |
| Stk11 | -1.59 | 1.63 | 1.18 | enough cells to score | active |
| Phaf1 | 0.5 | 1.65 | 1.93 | enough cells to score | inactive |
| Slc29a2 | – | 1.4 | 1.06 | fewer than 50 cells per well; well left out of scoring | inactive |
| Renbp | -0.08 | 1.46 | 1.55 | enough cells to score | inactive |
| Noxo1 | -0.1 | 1.71 | 1.5 | enough cells to score | inactive |
| Zbtb32 | 0.31 | 1.55 | 1.57 | enough cells to score | inactive |
| Zfp998 | – | 1.11 | 0.914 | fewer than 50 cells per well; well left out of scoring | inactive |
| Fbxo27 | – | 1.29 | 1.22 | fewer than 50 cells per well; well left out of scoring | inactive |
| Xkr8 | -0.35 | 1.16 | 1.26 | enough cells to score | inactive |
| Rprd1a | -0.55 | 1.54 | 1.32 | enough cells to score | inactive |
| Cox4i1 | 1.12 | 1.63 | 2.09 | enough cells to score | inactive |
| Bpifb9a | -1.85 | 1.12 | 1.22 | enough cells to score | active |
| Kcnj5 | – | 1.46 | 1.35 | fewer than 50 cells per well; well left out of scoring | inactive |
| Lpin1 | – | 1.7 | 1.44 | fewer than 50 cells per well; well left out of scoring | inactive |
| Fxn | -0.66 | 1.47 | 1.39 | enough cells to score | inactive |
| Tmem202 | – | 1.49 | 1.54 | fewer than 50 cells per well; well left out of scoring | inactive |
| Kcnq5 | 0.52 | 1.58 | 1.42 | enough cells to score | inactive |
| Glyctk | -0.48 | 1.21 | 1.49 | enough cells to score | inactive |
| Gprc5c | -1.3 | 1.33 | 1.39 | enough cells to score | inactive |
| Clcc1 | 1.33 | 1.81 | 1.84 | enough cells to score | inactive |
| Gng7 | -2.43 | 1.21 | 1.18 | enough cells to score | active |
| Or52k2 | – | 1.45 | 1.37 | fewer than 50 cells per well; well left out of scoring | inactive |
| 1700088E04Rik | 0.2 | 1.36 | 1.51 | enough cells to score | inactive |
| Tll2 | – | 1.12 | 1.01 | fewer than 50 cells per well; well left out of scoring | inactive |
| Pitx1 | -0.82 | 1.35 | 1.33 | enough cells to score | inactive |
| Plekhh2 | 0.58 | 1.77 | 1.7 | enough cells to score | inactive |
| Osbpl11 | -0.56 | 1.4 | 1.15 | enough cells to score | inactive |
| Fthl17e | -0.27 | 1.63 | 1.36 | enough cells to score | inactive |
| Asnsd1 | – | 1.39 | 1.51 | fewer than 50 cells per well; well left out of scoring | inactive |
| Zbtb20 | – | 1.31 | 1.21 | fewer than 50 cells per well; well left out of scoring | inactive |
| Il27 | – | 1.3 | 1.28 | fewer than 50 cells per well; well left out of scoring | inactive |
| Havcr1 | -0.1 | 1.32 | 1.46 | enough cells to score | inactive |
| 4932415M13Rik | – | 1.25 | 1.66 | fewer than 50 cells per well; well left out of scoring | inactive |
| Cdk19 | -0.29 | 1.59 | 1.39 | enough cells to score | inactive |
| Cdk19 | -0.02 | 1.44 | 1.42 | enough cells to score | inactive |
| Zswim1 | – | 1.54 | 1.13 | fewer than 50 cells per well; well left out of scoring | inactive |
| C1qtnf3 | -1.13 | 1.28 | 1.58 | enough cells to score | inactive |
| Or5w16 | -0.26 | 1.64 | 1.52 | enough cells to score | inactive |
| Nlrp10 | -0.49 | 1.36 | 1.29 | enough cells to score | inactive |
| Zfp46 | – | 1.12 | 1.22 | fewer than 50 cells per well; well left out of scoring | inactive |
| Dxo | – | 1.5 | 1.27 | fewer than 50 cells per well; well left out of scoring | inactive |
| Hoxb7 | -0.15 | 1.39 | 1.38 | enough cells to score | inactive |
| Penk | 0.35 | 1.43 | 1.52 | enough cells to score | inactive |
| Ctnnb1 | 2.18 | 1.99 | 1.45 | enough cells to score | inactive |

Entries listed so far called active, once more:
| Target gene | p65 translocation robust z-score | nuclear/cytoplasmic p65 ratio, rep 1 | nuclear/cytoplasmic p65 ratio, rep 2 | low cell count flag | Call |
| --- | --- | --- | --- | --- | --- |
| Stk11 | -1.59 | 1.63 | 1.18 | enough cells to score | active |
| Bpifb9a | -1.85 | 1.12 | 1.22 | enough cells to score | active |
| Gng7 | -2.43 | 1.21 | 1.18 | enough cells to score | active |
